According to the supplement of paper PMC7238544:
Structures can show the parent of a compound that is named as a salt. ± gives the standard deviation of the averaged measurements. This is one part of the list. The data scatter; read single values as rough.

Each compound was assayed on hAMSC donor 1 (assay: Hoechst total cell count ratio vs vehicle control; hAMSC are human adipose-derived mesenchymal stem cells given an EGFP-luciferase plasmid by lipofection; higher = more cells (less toxicity)). Details: priming compound concentration 13 µM.

Row | Structure (SMILES) | Hoechst total cell count ratio
1 | CN(C)[C@@H]1C(O)=C(C(N)=O)C(=O)[C@@]2(O)C(O)=C3C(=O)c4c(O)ccc(Cl)c4[C@@H](O)[C@H]3C[C@@H]12 [Demeclocycline] | 1.45 ± 0.089
2 | OCCN1CCN(CCCN2c3ccccc3Sc3ccc(C(F)(F)F)cc32)CC1 [Fluphenazine dihydrochloride] | 1.15 ± 0.078
3 | CCN(CC)CCOc1ccc(C(=C(Cl)c2ccccc2)c2ccccc2)cc1 [Clomifene citrate] | 1.02 ± 0.015
4 | N#Cc1ccc(C(c2ccc(C#N)cc2)n2cncn2)cc1 [Letrozole] | 1 ± 0.047
5 | COc1cc([C@@H]2c3cc4c(cc3[C@@H](O[C@@H]3O[C@@H]5CO[C@@H](C)O[C@H]5[C@H](O)[C@H]3O)[C@H]3COC(=O)[C@H]23)OCO4)cc(OC)c1O [Etoposide] | 0.715 ± 0.14
6 | C[C@]12C[C@H](O)[C@H]3[C@@H](CCC4=CC(=O)CC[C@@]43C)[C@@H]1CC[C@@H]2C(=O)CO [Corticosterone] | 1.33 ± 0.2
7 | CCN1CCCC1CNC(=O)c1cc(S(=O)(=O)CC)c(N)cc1OC (stereo not given) [Amisulpride] | 1.32 ± 0.15
8 | CN(C)CC[C@@H](c1ccc(Br)cc1)c1ccccn1 [Dexbrompheniramine maleate] | 1.14 ± 0.17
9 | CC1=C(C/C=C(\C)CCC[C@H](C)CCC[C@H](C)CCCC(C)C)C(=O)c2ccccc2C1=O [Phylloquinone] | 1.31 ± 0.089
10 | C[C@H](CS)C(=O)N1CCC[C@H]1C(=O)O [Captopril] | 1.32 ± 0.17
11 | c1ccc2c(CC3=NCCN3)cccc2c1 [Naphazoline hydrochloride] | 1.2 ± 0.087
12 | C[C@H]1O[C@@H](O[C@H]2[C@@H](O)C[C@H](O[C@H]3[C@@H](O)C[C@H](O[C@H]4CC[C@@]5(C)[C@H](CC[C@@H]6[C@@H]5C[C@@H](O)[C@]5(C)[C@@H](C7=CC(=O)OC7)CC[C@]65O)C4)O[C@@H]3C)O[C@@H]2C)C[C@H](O)[C@@H]1O [Digoxin] | 0.254 ± 0.049
13 | CC#C[C@]1(O)CC[C@H]2[C@@H]3CCC4=CC(=O)CCC4=C3[C@@H](c3ccc(N(C)C)cc3)C[C@@]21C | 1.03 ± 0.091
14 | COc1ccccc1N1CCN(CC(O)COc2cccc3ccccc23)CC1 (stereo not given) [Naftopidil] | 1.2 ± 0.14
15 | CN1CCN(c2nc3cc(C(F)(F)F)ccc3n3cccc23)CC1 | 1.19 ± 0.25
16 | CC(C)[C@H](N)C(=O)OCCOCn1cnc2c(=O)nc(N)[nH]c21 [Valaciclovir hydrochloride] | 1.19 ± 0.11
17 | O=c1[nH]cc(F)c(=O)[nH]1 [5-Fluorouracil] | 1.42 ± 0.069
18 | CC1(C)S[C@@H]2[C@H](NC(=O)[C@H](N)c3ccc(O)cc3)C(=O)N2[C@H]1C(=O)O [Amoxicillin] | 1.47 ± 0.12
19 | CN1CCC[C@H]1c1cccnc1 [Nicotine] | 1.36 ± 0.098
20 | CC1(C)O[C@@H]2[C@@H](CO[C@@]3(COS(N)(=O)=O)OC(C)(C)O[C@@H]23)O1 [Topiramate] | 1.36 ± 0.094
21 | Nc1ncnc2c1ncn2[C@@H]1O[C@H](CO)C[C@@H]1O [3'-Deoxydenosine] | 0.964 ± 0.081
22 | O=C1c2c(O)cc(O)cc2O[C@H](c2ccc(O)c(O)c2)[C@H]1O (racemic) [Taxifolin-(+/-)] | 1.11 ± 0.17
23 | O=C(c1ccccc1)c1ccc2n1CCC2C(=O)O (stereo not given) [Ketorolac tromethamine] | 1.25 ± 0.093
24 | CC(=O)N[C@H]1[C@H]([C@H](O)[C@H](O)CO)OC(C(=O)O)=C[C@@H]1NC(=N)N [Zanamivir hydrate] | 1.23 ± 0.12
25 | CCOc1cc(CC(=O)N[C@@H](CC(C)C)c2ccccc2N2CCCCC2)ccc1C(=O)O [Repaglinide] | 0.981 ± 0.13
26 | CCn1cc(C(=O)O)c(=O)c2cc(F)c(N3CCN(C)CC3)cc21 [Pefloxacin mesylate] | 1.23 ± 0.19

Each compound was assayed on hAMSC donor 2 in the same assay as above. Details: priming compound concentration 0.2 µM.

Row | Structure (SMILES) | Hoechst total cell count ratio
27 | CN(CCOc1ccc(CC2SC(=O)NC2=O)cc1)c1ccccn1 (stereo not given) [Rosiglitazone maleate] | 1.48 ± 0.14
28 | C[C@](N)(Cc1ccc(O)cc1)C(=O)O [alpha-Methyl-L-tyrosine] | 1.02 ± 0.053
29 | COc1cc(OC)c(C(=O)CCCN2CCCC2)c(OC)c1 [Buflomedil hydrochloride] | 1.19 ± 0.19
30 | COCCOC(=O)C1=C(C)NC(C)=C(C(=O)OC(C)C)C1c1cccc([N+](=O)[O-])c1 (stereo not given) [Nimodipine] | 1.04 ± 0.28
31 | O=C(CCCN1CC=C(n2c(=O)[nH]c3ccccc32)CC1)c1ccc(F)cc1 [Droperidol] | 1.29 ± 0.24
32 | CN1[C@@H]2CC[C@H]1C[C@@H](OC(=O)c1c[nH]c3ccccc13)C2 [Tropisetron hydrochloride] | 1.4 ± 0.18
33 | CN1[C@@H](CC(=O)c2ccccc2)CCC[C@H]1C[C@H](O)c1ccccc1 [Lobeline hydrochloride] | 0.913 ± 0.32
34 | CN(C)CCCC1(c2ccc(F)cc2)OCc2cc(C#N)ccc21 (stereo not given) [Citalopram hydrobromide] | 1.21 ± 0.13
35 | CN(C)CCc1c[nH]c2ccc(Cn3cncn3)cc12 [Rizatriptan benzoate] | 1.11 ± 0.13
36 | Nc1ncn([C@@H]2O[C@H](CO)[C@@H](O)[C@H]2O)c(=O)n1 [5-Azacytidine] | 1.22 ± 0.18
37 | O=C(O)CCc1nc(-c2ccccc2)c(-c2ccccc2)o1 [Oxaprozin] | 0.884 ± 0.11
38 | CN1CC(=O)N2[C@H](c3ccc4c(c3)OCO4)c3[nH]c4ccccc4c3C[C@@H]2C1=O [Tadalafil] | 1.02 ± 0.079
39 | O=c1c(O[C@@H]2O[C@H](CO)[C@@H](O)[C@H](O)[C@H]2O)c(-c2ccc(O)c(O)c2)oc2cc(O)cc(O)c12 [Isoquercitrin] | 1.27 ± 0.1
40 | CN(C)[C@@H]1C(O)=C(C(N)=O)C(=O)[C@@]2(O)C(O)=C3C(=O)c4c(O)ccc(Cl)c4[C@@H](O)[C@H]3C[C@@H]12 [Demeclocycline] | 1.21 ± 0.17
41 | OCCN1CCN(CCCN2c3ccccc3Sc3ccc(C(F)(F)F)cc32)CC1 [Fluphenazine dihydrochloride] | 1.07 ± 0.42
42 | CCN(CC)CCOc1ccc(C(=C(Cl)c2ccccc2)c2ccccc2)cc1 [Clomifene citrate] | 0.933 ± 0.21
43 | N#Cc1ccc(C(c2ccc(C#N)cc2)n2cncn2)cc1 [Letrozole] | 1.05 ± 0.12
44 | COc1cc([C@@H]2c3cc4c(cc3[C@@H](O[C@@H]3O[C@@H]5CO[C@@H](C)O[C@H]5[C@H](O)[C@H]3O)[C@H]3COC(=O)[C@H]23)OCO4)cc(OC)c1O [Etoposide] | 1.03 ± 0.4
45 | C[C@]12C[C@H](O)[C@H]3[C@@H](CCC4=CC(=O)CC[C@@]43C)[C@@H]1CC[C@@H]2C(=O)CO [Corticosterone] | 1.07 ± 0.14
46 | CCN1CCCC1CNC(=O)c1cc(S(=O)(=O)CC)c(N)cc1OC (stereo not given) [Amisulpride] | 0.961 ± 0.043

Row | Structure (SMILES) | Hoechst total cell count ratio
47 | CN(C)CC[C@@H](c1ccc(Br)cc1)c1ccccn1 [Dexbrompheniramine maleate] | 1.47 ± 0.28
48 | CC1=C(C/C=C(\C)CCC[C@H](C)CCC[C@H](C)CCCC(C)C)C(=O)c2ccccc2C1=O [Phylloquinone] | 1.26 ± 0.27
49 | C[C@H](CS)C(=O)N1CCC[C@H]1C(=O)O [Captopril] | 0.943 ± 0.057
50 | c1ccc2c(CC3=NCCN3)cccc2c1 [Naphazoline hydrochloride] | 0.97 ± 0.28
51 | C[C@H]1O[C@@H](O[C@H]2[C@@H](O)C[C@H](O[C@H]3[C@@H](O)C[C@H](O[C@H]4CC[C@@]5(C)[C@H](CC[C@@H]6[C@@H]5C[C@@H](O)[C@]5(C)[C@@H](C7=CC(=O)OC7)CC[C@]65O)C4)O[C@@H]3C)O[C@@H]2C)C[C@H](O)[C@@H]1O [Digoxin] | 1.02 ± 0.25
52 | CC#C[C@]1(O)CC[C@H]2[C@@H]3CCC4=CC(=O)CCC4=C3[C@@H](c3ccc(N(C)C)cc3)C[C@@]21C | 0.969 ± 0.074
53 | COc1ccccc1N1CCN(CC(O)COc2cccc3ccccc23)CC1 (stereo not given) [Naftopidil] | 1.44 ± 0.54
54 | CN1CCN(c2nc3cc(C(F)(F)F)ccc3n3cccc23)CC1 | 1.21 ± 0.071
55 | CC(C)[C@H](N)C(=O)OCCOCn1cnc2c(=O)nc(N)[nH]c21 [Valaciclovir hydrochloride] | 1.48 ± 0.15
56 | O=c1[nH]cc(F)c(=O)[nH]1 [5-Fluorouracil] | 0.899 ± 0.11
57 | CC1(C)S[C@@H]2[C@H](NC(=O)[C@H](N)c3ccc(O)cc3)C(=O)N2[C@H]1C(=O)O [Amoxicillin] | 1.09 ± 0.19
58 | CN1CCC[C@H]1c1cccnc1 [Nicotine] | 1.03 ± 0.13
59 | CC1(C)O[C@@H]2[C@@H](CO[C@@]3(COS(N)(=O)=O)OC(C)(C)O[C@@H]23)O1 [Topiramate] | 0.976 ± 0.022
60 | Nc1ncnc2c1ncn2[C@@H]1O[C@H](CO)C[C@@H]1O [3'-Deoxydenosine] | 0.95 ± 0.06
61 | O=C1c2c(O)cc(O)cc2O[C@H](c2ccc(O)c(O)c2)[C@H]1O (racemic) [Taxifolin-(+/-)] | 0.975 ± 0.19
62 | O=C(c1ccccc1)c1ccc2n1CCC2C(=O)O (stereo not given) [Ketorolac tromethamine] | 1.01 ± 0.2
63 | CC(=O)N[C@H]1[C@H]([C@H](O)[C@H](O)CO)OC(C(=O)O)=C[C@@H]1NC(=N)N [Zanamivir hydrate] | 1.01 ± 0.11
64 | CCOc1cc(CC(=O)N[C@@H](CC(C)C)c2ccccc2N2CCCCC2)ccc1C(=O)O [Repaglinide] | 1.14 ± 0.062
65 | CCn1cc(C(=O)O)c(=O)c2cc(F)c(N3CCN(C)CC3)cc21 [Pefloxacin mesylate] | 1.16 ± 0.14
